Results are given in words; binding and its absence hold for the method and conditions named. Some entries that bind do so weakly or less than the wild type.
Tests used:
[1] = biological target: native form of secretory sPD-L1-9, in culture supernatant of transfected MC38 cells (human) (UniProt Q9NZQ7); assay: indirect (sandwich) ELISA with MC38 culture supernatant containing sPD-L1-9
[2] = biological target: recombinant PD-L1-9-HIS (secretory splice variant PD-L1-9 with HIS tag, from HEK293 cells) (human) (UniProt Q9NZQ7); assay: direct ELISA, 50 ng/well rPD-L1-9-HIS coated, 100 ng/well antibody
[3] = biological target: native form of secretory sPD-L1-9, in culture supernatant of transfected MC38 cells (human) (UniProt Q9NZQ7); assay: ELISA with MC38 culture supernatant containing native sPD-L1-9

Protein sequences, listed by entry. Tags and fused reporters are not part of them. Lines headed by an entry give the natural chain unless they say otherwise; changes in a name come on top.
UniProt Q9NZQ7: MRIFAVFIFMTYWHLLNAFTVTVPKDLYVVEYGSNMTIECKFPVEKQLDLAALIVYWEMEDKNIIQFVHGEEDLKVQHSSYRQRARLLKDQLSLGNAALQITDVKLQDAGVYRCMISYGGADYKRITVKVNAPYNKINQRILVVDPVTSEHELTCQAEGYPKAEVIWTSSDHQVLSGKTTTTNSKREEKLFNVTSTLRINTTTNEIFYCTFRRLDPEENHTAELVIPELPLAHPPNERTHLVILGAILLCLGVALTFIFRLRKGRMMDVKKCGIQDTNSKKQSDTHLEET

| binding [1] | binding [2] | binding [3] | Binder |
| --- | --- | --- | --- |
| binds | binds | – | PD-L1 mouse monoclonal antibody #19 (antibody, mouse IgG2b, V domains shown, also called mAb #19; Ab #19) VH: EVQLQQSGPELVKPGASVKISCKASGSAFSSSWMNWLKQRPGQGLEWIGRIYPGDGDTNYNGKFKGKATLTADKSSSTAYMQLSSLTSVDSAVYFCARRRANHYGSNWYFDVWGAGTTVTVSS VL: NIVLTQSPASLAVSLGQRATISCRASESVDSYGKSFMHWYQQKPGQPPKLLIYLASNLESGVPARFSGSGSRTDFTLTIDPVEADDAATYYCQQNNEDPYTFGGGTKLEIK |
| – | – | binds | humanized PD-L1 antibody H6L2 (humanized mouse monoclonal antibody #19, VH6 + VL2) (antibody, V domains shown, also called humanized antibody H6L2; humanized antibody #19) VH: EVQLQQSGAEVKKPGSSVKVSCKASGSAFSSSWMNWLKQRPGQGLEWIGRIYPGDGDTNYNGKFKGRVTLTADKSSSTAYMQLSSLRSEDTAVYFCARRRANHYGSNWYFDVWGAGTTVTVSS VL: NIVLTQSPSSLSASVGDRVTITCRASESVDSYGKSFMHWYQQKPGQPPKLLIYLASNLESGVPSRFSGSGSRTDFTLTISSLQPEDFATYYCQQNNEDPYTFGGGTKLEIK |
